Measured values from patent EP1224299B1, “RECOMBINANT PROTEINS AND PEPTIDES FOR ENDOTOXIN BIOSENSORS, ENDOTOXIN REMOVAL, AND ANTI-MICROBIAL AND ANTI-ENDOTOXIN THERAPEUTICS” (priority 1999, dated 2001).
Not every detail of the peptide structures is certain; ends, links or a residue may be inferred. Ends that are not written are not given here.

Columns and labels:
[1] = Limulus Kinetic-QCL assay, inhibition of endotoxin-induced LAL reaction; assay type: biochemical, E.coli 055:B5; settings: 200 EU/ml LPS, 1 h at 37 °C, 1000-fold dilution; read-out: 50% endotoxin-neutralizing concentration (ENC50)
From the text: The Limulus Kinetic-QCL is a quantitative, kinetic assay for the detection of gram-negative bacterial endotoxin. This assay utilizes the initial part of LAL endotoxin reaction to activate an enzyme, which in turn releases p-nitroaniline from a synthetic substrate, producing a yellow color. The time required before the appearance of a yellow color is inversely proportional to the amount of endotoxin present. Throughout the assay, the absorbance at 405 nm of each well of the microplate was monitored. Using the initial absorbance reading of each well as its own blank, the time required for the absorbance to increase 0.200 absorbance units were calculated as Reaction Time.
Briefly, 25 µl of endotoxin solution (LPS, E.coli 055:B5) at 200 EU/ml was mixed with an equal volume of SSCrFCES at 1 µM, in a series of 2-fold dilutions in LAL reagent water in disposable endotoxin-free glass dilution tubes (BioWhittaker) and incubated at 37°C for one hour. […] The endotoxin activity was then quantified with Limulus Kinetic-QCL. […] The plate was then pre-incubated for > 10 minutes in a temperature-controlled ELISA plate reader. […] The absorbance at 405 nm of each well of the microtitre plate was monitored at time intervals of 5 minutes over a period of 2 hours. A 5 second automix was activated prior to reading. […]
The high sensitivity of the assay allowed for very low levels of endotoxin to be detected. […]

[2] = LPS-induced lethality in galactosamine-sensitized mice; assay type: in vivo, C57BL/6J mice
Description: The anti-endotoxin potency of SSCrFCES was investigated in C57BL/6J mice. Mice are typically resistant to endotoxin. However, the sensitivity of mice to endotoxin can be enhanced > 1,000-fold by co-injection with a liver-specific inhibitor, galactosamine (31). In our study, intraperitoneal (i.p.) injection of 2.5 ng of E. coli 055:B5 LPS together with 15 mg of galactosamine hydrochloride in 0.2 ml of saline induced nearly 100% lethality in 18-25 g C57BL/6J mice within 7 hours. Various concentrations of SSCrFCES (1, 2, and 4 µM) and synthetic peptides (25 and 75 µg) were injected intravenously (i.v.) through tail vein 10 minutes after i.p. injection of the LPS-galactosamine mixture. Lethality was observed over 3 days after injection. Statistical analysis were performed using the Kaplan-Meier test (32) and log rank pairwise test.

HAEHKVKIGVEQKYGQFPQGTEVTYTCSGNYFLM [S3]
EC50 [1]: 1000 nM | protection ([2]; 25 and 75 µg peptide): 22-100% | decrease in LPS-induced lethality ([2]; 25 or 75 µg, pre-incubated with LPS 30 min prior to i.p. injection): 20-55%

HAEHKVKIKVKQKYGQFPQGTEVTYTCSGNYFLM [S3Δ]
EC50 [1]: 625 nM | protection against LPS-induced toxicity ([2]; 75 µg peptide): 100%
